The source of these data is US20230220047A1, “PEPTIDES FOR TREATMENT OF SEPSIS AND CANCER” (NORWEGIAN UNIVERSITY OF SCIENCE AND TECHNOLOGY (NTNU), priority 2020, published 2023).

Amino acid sequences for entries named in this document (tags omitted). Residues count along the entry.
UniProt Q86XR7, residues 2-235: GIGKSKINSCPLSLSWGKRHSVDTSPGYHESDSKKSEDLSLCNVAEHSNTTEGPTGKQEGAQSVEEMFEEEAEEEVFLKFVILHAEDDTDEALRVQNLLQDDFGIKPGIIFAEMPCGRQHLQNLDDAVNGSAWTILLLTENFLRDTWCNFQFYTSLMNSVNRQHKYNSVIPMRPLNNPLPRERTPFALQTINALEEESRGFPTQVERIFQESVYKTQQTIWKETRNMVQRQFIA
UniProt P58753: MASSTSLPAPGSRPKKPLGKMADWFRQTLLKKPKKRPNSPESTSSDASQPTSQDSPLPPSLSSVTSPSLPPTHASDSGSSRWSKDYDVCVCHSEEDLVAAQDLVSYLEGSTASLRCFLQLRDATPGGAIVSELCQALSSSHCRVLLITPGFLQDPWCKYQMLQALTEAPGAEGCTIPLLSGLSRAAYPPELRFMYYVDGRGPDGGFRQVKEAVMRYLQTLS

Changes are numbered by the printed parent chain. Names may count otherwise. No constants are given. Whether binding was seen depends on the method and setting. For part of these data: In cells and extracts the contact can be indirect. Some entries that bind do so weakly or less than the wild type. Sequences can lack the tags named with a protein.

In assay [1] the target is TRAM^YFP (human TRAM fused to YFP) (human) (UniProt Q86XR7). The experiment in a line: anti-Flag co-precipitation from HEK 293T lysates, anti-GFP Western blot. (In general: In western blotting, separated proteins are transferred to a membrane and probed.)
Assay [2] addresses Mal^Flag (human Mal with Flag tag, overexpressed in HEK293T cells) (human) (UniProt P58753). The assay can be described thus: anti-Flag IP from HEK293T cells co-expressing Mal^Flag and SLAMF1, Western blot.
The target in assay [3] is human TRAM (endogenous in primary human macrophages, or overexpressed in HEK 293T cells) (human) (UniProt Q86XR7). The assay can be described thus: endogenous co-precipitation with anti-SLAMF1 mAb (E-11) from primary human macrophages, Western blot.
In assay [4] the target is TRAM^YFP (human TRAM fused to YFP) (human) (UniProt Q86XR7). The assay can be described thus: anti-Flag co-precipitation from HEK 293T lysates, Western blot.

B1: SLAMF1^Flag (human SLAMF1 with C-terminal Flag tag, wild type) (receptor, UniProt Q13291 21-335, looked up, not shown: small tags and cut ends)
chain: ASYGTGGRMMNCPKILRQLGSKVLLPLTYERINKSMNKSIHIVVTMAKSLENSVENKIVSLDPSEAGPPRYLGDRYKFYLENLTLGIRESRKEDEGWYLMTLEKNVSVQRFCLQLRLYEQVSTPEIKVLNKTQENGTCTLILGCTVEKGDHVAYSWSEKAGTHPLNPANSSHLLSLTLGPQHADNIYICTVSNPISNNSQTFSPWPGCRTDPSETKPWAVYAGLLGGVIMILIMVVILQLRRRGKTNHYQTTVEKKSLTIYAQVQKPGPLQKKLDSFPAQDPCTTIYVAATEPVPESVQETNSITVYASVTLPES
For B1, the binding result in assay [1] is given as “binds”.

B2: SLAMF1 (human, no tag stated; overexpressed in HEK293T cells or endogenous in primary human macrophages) (receptor, UniProt Q13291 21-335, looked up)
chain: B1 chain
For B2, the binding entry in assay [2] and in assay [3] was “binds” each time.

B3: SLAMF1^Flag S329A/T331I (receptor, human, UniProt Q13291 21-335, looked up, not shown: small tags and cut ends)
chain: B1 chain with S309A, T311I
Take B3: in assay [4], the binding result was “binds”.

B4: SLAMF1^Flag T321A (receptor, human, UniProt Q13291 21-335, looked up, not shown: small tags and cut ends)
chain: B1 chain with T301A
In the case of B4, in assay [4], the binding result is on record as “binds”.

B5: SLAMF1^Flag P315S (receptor, human, UniProt Q13291 21-335, looked up, not shown: small tags and cut ends)
chain: B1 chain with P295S
As to B5, in assay [4], the binding entry is recorded as “binds”.

B6: SLAMF1^Flag P333T (receptor, human, UniProt Q13291 21-335, looked up, not shown: small tags and cut ends)
chain: B1 chain with P313T
As for B6, the binding entry in assay [4] was “binds”.

B7: SLAMF1^Flag T331V (receptor, human, UniProt Q13291 21-335, looked up, not shown: small tags and cut ends)
chain: B1 chain with T311V
On to B7, for which the binding result in assay [4] was “binds”.

B8: SLAMF1^Flag S335A (receptor, human, UniProt Q13291 21-335, looked up, not shown: small tags and cut ends)
chain: B1 chain with S315A
For the molecule B8, the binding entry in assay [4] is “binds”.
